Measurements from publication PMC545073.
No constants are given. Whether binding was seen depends on the method and setting. In cells and extracts the contact can be indirect. Some entries that bind do so weakly or less than the wild type.

The chains behind the UniProt entries cited, without tags or fusion partners.
UniProt Q15797: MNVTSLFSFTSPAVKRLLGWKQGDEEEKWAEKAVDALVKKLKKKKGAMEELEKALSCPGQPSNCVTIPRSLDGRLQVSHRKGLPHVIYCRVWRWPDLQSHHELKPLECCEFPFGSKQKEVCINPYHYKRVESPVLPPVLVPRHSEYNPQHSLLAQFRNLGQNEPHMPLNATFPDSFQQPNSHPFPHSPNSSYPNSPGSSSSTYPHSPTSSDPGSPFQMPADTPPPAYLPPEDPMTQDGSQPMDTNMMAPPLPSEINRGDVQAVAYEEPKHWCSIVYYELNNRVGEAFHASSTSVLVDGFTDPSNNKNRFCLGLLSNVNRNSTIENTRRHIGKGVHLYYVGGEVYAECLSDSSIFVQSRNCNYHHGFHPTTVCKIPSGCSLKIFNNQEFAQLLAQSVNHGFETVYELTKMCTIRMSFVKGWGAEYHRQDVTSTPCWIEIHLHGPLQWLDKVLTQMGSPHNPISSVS
UniProt Q13485: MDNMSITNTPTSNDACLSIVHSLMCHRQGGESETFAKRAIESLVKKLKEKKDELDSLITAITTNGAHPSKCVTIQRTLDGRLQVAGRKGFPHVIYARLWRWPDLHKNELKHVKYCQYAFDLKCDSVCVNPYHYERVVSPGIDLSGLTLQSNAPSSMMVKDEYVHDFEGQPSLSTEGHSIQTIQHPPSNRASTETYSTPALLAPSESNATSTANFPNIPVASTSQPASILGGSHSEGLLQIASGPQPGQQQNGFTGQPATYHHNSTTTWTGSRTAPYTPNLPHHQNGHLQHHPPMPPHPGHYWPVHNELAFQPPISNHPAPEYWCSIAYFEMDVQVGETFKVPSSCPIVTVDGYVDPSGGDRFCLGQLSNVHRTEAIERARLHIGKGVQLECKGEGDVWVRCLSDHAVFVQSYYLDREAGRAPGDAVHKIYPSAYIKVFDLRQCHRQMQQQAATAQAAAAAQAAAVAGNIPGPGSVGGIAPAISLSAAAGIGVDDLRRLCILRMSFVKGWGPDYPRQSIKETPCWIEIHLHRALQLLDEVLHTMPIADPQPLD

Molecular target: in vitro-translated, 35S-Met-labeled SMAD1 (UniProt Q15797)
Experiment: pull-down; same experiment as a2, lane with in vitro-translated Smad1 + Smad4 together on His-ZZ-Mab21l2 beads: Smad4 retained through Smad1

binding: binds
Substance: in vitro-translated, 35S-Met-labeled SMAD4 (from UniProt Q13485 1-552)
